According to the supplement of paper PMC12889115:
The other results are listed elsewhere or left out. These are raw signals, not scaled to a control.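 Primary screen: polymyxin B was added at a level permeabilizing Salmonella outer membranes while sparing inner membranes. DMSO wells, both with and without polymyxin B, established maximum growth. Plate-to-plate variation meant each plate was ranked on its own, and the lowest-OD600 compounds were selected as hits.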

System: Salmonella enterica serovar Typhimurium SL1344
Test: bacterial growth OD600 after 18 h with compound and polymyxin B; higher = more bacterial growth (less inhibition)
Settings: 50 µM, Mueller-Hinton broth

SMILES	bacterial growth OD600 (polymyxin B 1 µg/mL)	bacterial growth OD600 (polymyxin B 0.75 µg/mL)
OCC1(CCOc2ccccc2)CCN(Cc2ccc(OC(F)F)cc2)CC1	0.848	
CCOC(=O)C1CCN(Cc2cccc(OCC(O)CN3CCCCCC3)c2)CC1 (centres undefined)		0.932
O=C(c1scc2c1OCCO2)N1CCOC(CCc2ccccc2)C1 (centres undefined)		0.545
CC(Cc1cccs1)NC(=O)c1cc(Cn2ccnc2C(C)C)[nH]n1 (centres undefined)	0.99	
Cc1cc(F)ccc1NC(=O)CCC1CCCN(Cc2cccnc2)C1 (centres undefined)	0.923	
CC(C)(C)C(=O)NC1CCCc2nc(-c3ccccc3)ncc21 (centres undefined)	0.92	
CCn1cncc1CN1CCC(C2CCN(Cc3ccc(Cl)cc3)C2)CC1 (centres undefined)		0.807
OCCN1CCN(Cc2ccc3c(c2)CN(CC2CC=CCC2)CCO3)CC1 (centres undefined)		0.825
Cn1ccnc1C1CCCCN1C(=O)CCc1nnc(CCCc2ccccc2)o1 (centres undefined)	0.9	
CC#CCN1C(=O)NC(CCc2ccccc2)(C2CCN(Cc3ccc(OC)cc3)CC2)C1=O (centres undefined)		0.797
COc1ccc(OCc2cc(C(=O)NC3CCC3)n[nH]2)c(Cl)c1		0.854
O=C(CCC1CCN(C(=O)c2ccccn2)CC1)N1CCC(Cc2ccccc2)CC1	0.961	
COCCNC1CCN(c2cccc(NC(=O)CCCc3ccccc3)c2)CC1		0.84
COc1ccccc1N1CCN(C2CCCN(C(=O)c3cn4ccsc4n3)C2)CC1 (centres undefined)	1.18	
COc1cc(C(=O)NC2CC(=O)N(Cc3ccc(F)cc3)C2)ccc1C (centres undefined)	0.957	
COc1ccc(CN2CCN(CCCn3cccn3)CC2CCO)c(C)c1C (centres undefined)	0.939	
O=C(CC1CCCC1)NC1CCCc2nc(N3CCC(CO)CC3)ncc21 (centres undefined)		0.907
COCc1noc(-c2ccc(N(Cc3nccn3C)C(C)C)nc2)n1		0.853
O=C(NCc1cccnc1)C1CCCN(C2CCN(CC3CCCC3)CC2)C1 (centres undefined)	1.21	
